Data from the supplement of paper PMC4604168 (melanoma cell lines).
The other results are listed elsewhere or left out. Single values are uncertain, as repeats are few or missing.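 Cells were imaged in 1,536-well plates, and nuclei stained with an antibody against cleaved PARP were counted against all DNA-stained nuclei to give the apoptosis fraction. Screening doses were chosen to leave most cells alive, and resting and induced cleaved-PARP levels differ strongly between cell lines.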

What follows are compounds tested on COLO792 (assay: cleaved PARP positive nuclei fraction relative to DMSO control; melanoma cells; higher = more apoptosis). Conditions: library dose: low library concentration; 72 h.

Going from COc1ccc(C2=N[C@@H](c3ccc(Cl)cc3)[C@@H](c3ccc(Cl)cc3)N2C(=O)N2CCNC(=O)C2)c(OC(C)C)c1 [Nutlin-3] + C=CCn1c(=O)c2cnc(Nc3ccc(N4CCN(C)CC4)cc3)nc2n1-c1cccc(C(C)(C)O)n1 [MK1775] (first compound 0.1 µM, partner dose 0.02 µM) to CS(=O)(=O)c1ccc(C(=O)Nc2ccc(Cl)c(-c3ccccn3)c2)c(Cl)c1 [vismodegib] + NC(=O)Nc1cc(-c2cccc(F)c2)sc1C(=O)N[C@H]1CCCNC1 [AZD7762] (first compound 1 µM, partner dose 0.02 µM), the “cleaved PARP positive nuclei fraction” value rises from 78.2% to 126%.

First: Cn1sc(=O)n(Cc2ccccc2)c1=O + CO[C@@H]1[C@H](N(C)C(=O)c2ccccc2)C[C@H]2O[C@]1(C)n1c3ccccc3c3c4c(c5c6ccccc6n2c5c31)C(=O)NC4 [Midostaurin] (first compound 0.4 µM, partner dose 0.08 µM)
Second: NC1(c2ccc(-c3nc4ccn5c(=O)[nH]nc5c4cc3-c3ccccc3)cc2)CCC1 + NC(=O)Nc1cc(-c2cccc(F)c2)sc1C(=O)N[C@H]1CCCNC1 [AZD7762] (first compound 0.4 µM, partner dose 0.02 µM)
The “cleaved PARP positive nuclei fraction” value of the first is higher: 234% for the first, 133% for the second.

Compared with Cn1cnc2c(F)c(Nc3ccc(Br)cc3Cl)c(C(=O)NOCCO)cc21 [selumetinib] + Cc1cc(N2CCOCC2)cc2[nH]c(-c3c(NC[C@@H](O)c4cccc(Cl)c4)cc[nH]c3=O)nc12 [BMS536924] (first compound 0.015 µM, partner dose 0.2 µM), C[C@@H](N)c1ccc(C(=O)Nc2ccnc3[nH]ccc23)cc1 + O=C(O)c1ccc(-c2c[nH]c3ncc(-c4ccccc4)cc23)cc1C1CCCC1 [GSK650394] (first compound 0.4 µM, partner dose 0.16 µM) is lower in “cleaved PARP positive nuclei fraction” value: 90.9% for the first, 89.2% for the second.

Going from CC(=O)O[C@@]12CO[C@@H]1C[C@H](O)[C@@]1(C)C(=O)[C@H](O)C3=C(C)[C@@H](OC(=O)[C@H](O)[C@@H](NC(=O)OC(C)(C)C)c4ccccc4)C[C@@](O)([C@@H](OC(=O)c4ccccc4)[C@H]21)C3(C)C [Docetaxel] + O=C(CCCCCCC(=O)Nc1ccccc1)NO [vorinostat] (first compound 0.0001 µM, partner dose 0.08 µM) to CC1(C)CCC(c2ccc(Cl)cc2)=C(CN2CCN(c3ccc(C(=O)NS(=O)(=O)c4ccc(N[C@H](CCN5CCOCC5)CSc5ccccc5)c(S(=O)(=O)C(F)(F)F)c4)cc3)CC2)C1 + CN(NC(=O)CC(=O)NN(C)C(=S)c1ccccc1)C(=S)c1ccccc1 [STA4783] (first compound 0.4 µM, partner dose 0.006 µM), the “cleaved PARP positive nuclei fraction” value falls from 1230% to 368%.

Going from C[C@]1(O)C[C@@H](c2nc(-c3ccc4ccc(-c5ccccc5)nc4c3)c3c(N)nccn32)C1 + CO[C@@H]1[C@H](N(C)C(=O)c2ccccc2)C[C@H]2O[C@]1(C)n1c3ccccc3c3c4c(c5c6ccccc6n2c5c31)C(=O)NC4 [Midostaurin] (first compound 0.4 µM, partner dose 0.08 µM) to NC1(c2ccc(-c3nc4ccn5c(=O)[nH]nc5c4cc3-c3ccccc3)cc2)CCC1 + O=C(Nc1cccc(Cl)c1)Nc1ncc(CCNc2ncnc3ccsc23)s1 [SNS314] (first compound 0.4 µM, partner dose 0.0008 µM), the “cleaved PARP positive nuclei fraction” value rises from 81.6% to 126%.

Compared with CC(=O)O[C@@]12CO[C@@H]1C[C@H](O)[C@@]1(C)C(=O)[C@H](O)C3=C(C)[C@@H](OC(=O)[C@H](O)[C@@H](NC(=O)OC(C)(C)C)c4ccccc4)C[C@@](O)([C@@H](OC(=O)c4ccccc4)[C@H]21)C3(C)C [Docetaxel] + CO[C@@H]1[C@H](N(C)C(=O)c2ccccc2)C[C@H]2O[C@]1(C)n1c3ccccc3c3c4c(c5c6ccccc6n2c5c31)C(=O)NC4 [Midostaurin] (first compound 0.0001 µM, partner dose 0.08 µM), CC1(C)CCC(c2ccc(Cl)cc2)=C(CN2CCN(c3ccc(C(=O)NS(=O)(=O)c4ccc(N[C@H](CCN5CCOCC5)CSc5ccccc5)c(S(=O)(=O)C(F)(F)F)c4)cc3)CC2)C1 + CC1(C)NC(=O)N(c2ccc([N+](=O)[O-])c(C(F)(F)F)c2)C1=O [nilutamide] (first compound 0.4 µM, partner dose 1 µM) is lower in “cleaved PARP positive nuclei fraction” value: 765% for the first, 316% for the second.

Going from CC(=O)O[C@@]12CO[C@@H]1C[C@H](O)[C@@]1(C)C(=O)[C@H](O)C3=C(C)[C@@H](OC(=O)[C@H](O)[C@@H](NC(=O)OC(C)(C)C)c4ccccc4)C[C@@](O)([C@@H](OC(=O)c4ccccc4)[C@H]21)C3(C)C [Docetaxel] + Cc1ccc(NC(=O)c2cccc(N(C)C)c2)cc1NC(=O)c1ccc(O)cc1 [ZM336372] (first compound 0.0001 µM, partner dose 2 µM) to CC1(C)CCC(c2ccc(Cl)cc2)=C(CN2CCN(c3ccc(C(=O)NS(=O)(=O)c4ccc(N[C@H](CCN5CCOCC5)CSc5ccccc5)c(S(=O)(=O)C(F)(F)F)c4)cc3)CC2)C1 + COc1cc(Nc2ncc(F)c(Nc3ccc4c(n3)NC(=O)C(C)(C)O4)n2)cc(OC)c1OC [Tamatinib] (first compound 0.4 µM, partner dose 0.4 µM), the “cleaved PARP positive nuclei fraction” value rises from 371% to 2140%.

Compared with Cn1sc(=O)n(Cc2ccccc2)c1=O + NC(=O)Nc1cc(-c2cccc(F)c2)sc1C(=O)N[C@H]1CCCNC1 [AZD7762] (first compound 0.4 µM, partner dose 0.02 µM), NC1(c2ccc(-c3nc4ccn5c(=O)[nH]nc5c4cc3-c3ccccc3)cc2)CCC1 + CC(C)(C)c1cnc(CSc2cnc(NC(=O)C3CCNCC3)s2)o1 [SNS-032] (first compound 0.4 µM, partner dose 0.01 µM) is lower in “cleaved PARP positive nuclei fraction” value: 231% for the first, 182% for the second.

First: COc1ccc(C2=N[C@@H](c3ccc(Cl)cc3)[C@@H](c3ccc(Cl)cc3)N2C(=O)N2CCNC(=O)C2)c(OC(C)C)c1 [Nutlin-3] + COc1cc2c(Oc3ccc4[nH]c(C)cc4c3F)ncnc2cc1OCCCN1CCCC1 [cediranib] (first compound 0.1 µM, partner dose 0.4 µM)
Second: NC(=O)c1ccc(N(C(N)=O)c2c(F)cccc2F)nc1-c1ccc(F)cc1F + Cc1ccc(NC(=O)c2cccc(N(C)C)c2)cc1NC(=O)c1ccc(O)cc1 [ZM336372] (first compound 0.4 µM, partner dose 2 µM)
The “cleaved PARP positive nuclei fraction” value of the first is higher: 97.1% for the first, 92% for the second.

Going from Cn1cnc2c(F)c(Nc3ccc(Br)cc3Cl)c(C(=O)NOCCO)cc21 [selumetinib] + CC1(C)NC(=O)N(c2ccc([N+](=O)[O-])c(C(F)(F)F)c2)C1=O [nilutamide] (first compound 0.015 µM, partner dose 1 µM) to C[C@@H](N)c1ccc(C(=O)Nc2ccnc3[nH]ccc23)cc1 + C[C@@H]1CCN(C(=O)CC#N)C[C@@H]1N(C)c1ncnc2[nH]ccc12 [CP690550] (first compound 0.4 µM, partner dose 1 µM), the “cleaved PARP positive nuclei fraction” value rises from 172% to 333%.

First: Cn1cnc2c(F)c(Nc3ccc(Br)cc3Cl)c(C(=O)NOCCO)cc21 [selumetinib] + NCC(=O)Nc1ccc(-n2nc(C(F)(F)F)cc2-c2ccc3c(ccc4ccccc43)c2)cc1 [OSU03012] (first compound 0.015 µM, partner dose 1 µM)
Second: C[C@@H](N)c1ccc(C(=O)Nc2ccnc3[nH]ccc23)cc1 + Cc1cc(N2CCOCC2)cc2[nH]c(-c3c(NC[C@@H](O)c4cccc(Cl)c4)cc[nH]c3=O)nc12 [BMS536924] (first compound 0.4 µM, partner dose 0.2 µM)
The “cleaved PARP positive nuclei fraction” value of the first is lower: 154% for the first, 211% for the second.

First: CCCCCCCCc1ccc(CCC(N)(CO)CO)cc1 [fingolimod] + OCCn1cc(-c2cnc3nnn(Cc4ccc5ncccc5c4)c3n2)cn1 [PF04217903] (first compound 2 µM, partner dose 1 µM)
Second: CCN(CC)CCNC(=O)c1c(C)[nH]c(/C=C2\C(=O)Nc3ccc(F)cc32)c1C [sunitinib] + O=C(Nc1cccc(Cl)c1)Nc1ncc(CCNc2ncnc3ccsc23)s1 [SNS314] (first compound 0.4 µM, partner dose 0.0008 µM)
The “cleaved PARP positive nuclei fraction” value of the first is higher: 103% for the first, 82.9% for the second.

Compared with C[C@]1(O)C[C@@H](c2nc(-c3ccc4ccc(-c5ccccc5)nc4c3)c3c(N)nccn32)C1 + COc1cc(Nc2ncc(F)c(Nc3ccc4c(n3)NC(=O)C(C)(C)O4)n2)cc(OC)c1OC [Tamatinib] (first compound 0.4 µM, partner dose 0.4 µM), CN(c1ncccc1CNc1nc(Nc2ccc3c(c2)CC(=O)N3)ncc1C(F)(F)F)S(C)(=O)=O + NC(=O)Nc1cc(-c2cccc(F)c2)sc1C(=O)N[C@H]1CCCNC1 [AZD7762] (first compound 0.08 µM, partner dose 0.02 µM) is lower in “cleaved PARP positive nuclei fraction” value: 349% for the first, 110% for the second.

Going from C[C@]1(O)C[C@@H](c2nc(-c3ccc4ccc(-c5ccccc5)nc4c3)c3c(N)nccn32)C1 + NC(=O)Nc1cc(-c2cccc(F)c2)sc1C(=O)N[C@H]1CCCNC1 [AZD7762] (first compound 0.4 µM, partner dose 0.02 µM) to CCN(CC)CCNC(=O)c1c(C)[nH]c(/C=C2\C(=O)Nc3ccc(F)cc32)c1C [sunitinib] + C=CCn1c(=O)c2cnc(Nc3ccc(N4CCN(C)CC4)cc3)nc2n1-c1cccc(C(C)(C)O)n1 [MK1775] (first compound 0.4 µM, partner dose 0.02 µM), the “cleaved PARP positive nuclei fraction” value rises from 40.2% to 131%.
